Laboratory results as given in article PMC4287435.
These are yes or no findings as the source states them, for the method shown. For some of these results: In cells and extracts the contact can be indirect. Some results given as binding are weak or reduced against the parent protein; the word gives no strength. Tags and fused reporters may be left off the sequences shown.

Key:
[1] = target: T1, MBP-APE1L fusion protein (Arabidopsis APE1L, full length) (Arabidopsis) (UniProt Q5XF07); assay: pull-down; MBP or MBP-APE1L (200 pmol) bound to amylose resin; His-ROS1 (15 pmol) incubated 1 h at 25°C in Binding Buffer (10 mM Tris pH 8.0, 1 mM DTT, 0.01 mg/ml BSA); Western blot with anti-His6; both purified
T1 sequence: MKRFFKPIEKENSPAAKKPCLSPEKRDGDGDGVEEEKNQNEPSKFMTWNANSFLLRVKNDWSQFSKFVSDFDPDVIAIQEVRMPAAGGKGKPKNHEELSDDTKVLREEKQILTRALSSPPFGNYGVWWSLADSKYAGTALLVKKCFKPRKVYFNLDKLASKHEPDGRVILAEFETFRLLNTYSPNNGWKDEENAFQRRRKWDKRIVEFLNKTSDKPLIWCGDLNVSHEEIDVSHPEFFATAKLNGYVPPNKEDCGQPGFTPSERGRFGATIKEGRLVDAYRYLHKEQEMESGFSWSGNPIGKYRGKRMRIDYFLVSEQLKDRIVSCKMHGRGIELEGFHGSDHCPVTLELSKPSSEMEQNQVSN

[2] = target: T2, His-tagged ROS1 (His-ROS1) (Arabidopsis) (UniProt Q9SJQ6); assay: native gel or EMSA; labelled 1-nt gapped DNA duplex (10 nM) with ROS1 (75 nM) and MBP-APE1L (0-1000 nM), 15 min at 25°C, 10 mM Tris HCl pH 8.0, 1 mM DTT, 10 µg/ml BSA; 0.2% agarose gel; ternary complex with DNA; supershift with anti-MBP; both purified
T2 sequence: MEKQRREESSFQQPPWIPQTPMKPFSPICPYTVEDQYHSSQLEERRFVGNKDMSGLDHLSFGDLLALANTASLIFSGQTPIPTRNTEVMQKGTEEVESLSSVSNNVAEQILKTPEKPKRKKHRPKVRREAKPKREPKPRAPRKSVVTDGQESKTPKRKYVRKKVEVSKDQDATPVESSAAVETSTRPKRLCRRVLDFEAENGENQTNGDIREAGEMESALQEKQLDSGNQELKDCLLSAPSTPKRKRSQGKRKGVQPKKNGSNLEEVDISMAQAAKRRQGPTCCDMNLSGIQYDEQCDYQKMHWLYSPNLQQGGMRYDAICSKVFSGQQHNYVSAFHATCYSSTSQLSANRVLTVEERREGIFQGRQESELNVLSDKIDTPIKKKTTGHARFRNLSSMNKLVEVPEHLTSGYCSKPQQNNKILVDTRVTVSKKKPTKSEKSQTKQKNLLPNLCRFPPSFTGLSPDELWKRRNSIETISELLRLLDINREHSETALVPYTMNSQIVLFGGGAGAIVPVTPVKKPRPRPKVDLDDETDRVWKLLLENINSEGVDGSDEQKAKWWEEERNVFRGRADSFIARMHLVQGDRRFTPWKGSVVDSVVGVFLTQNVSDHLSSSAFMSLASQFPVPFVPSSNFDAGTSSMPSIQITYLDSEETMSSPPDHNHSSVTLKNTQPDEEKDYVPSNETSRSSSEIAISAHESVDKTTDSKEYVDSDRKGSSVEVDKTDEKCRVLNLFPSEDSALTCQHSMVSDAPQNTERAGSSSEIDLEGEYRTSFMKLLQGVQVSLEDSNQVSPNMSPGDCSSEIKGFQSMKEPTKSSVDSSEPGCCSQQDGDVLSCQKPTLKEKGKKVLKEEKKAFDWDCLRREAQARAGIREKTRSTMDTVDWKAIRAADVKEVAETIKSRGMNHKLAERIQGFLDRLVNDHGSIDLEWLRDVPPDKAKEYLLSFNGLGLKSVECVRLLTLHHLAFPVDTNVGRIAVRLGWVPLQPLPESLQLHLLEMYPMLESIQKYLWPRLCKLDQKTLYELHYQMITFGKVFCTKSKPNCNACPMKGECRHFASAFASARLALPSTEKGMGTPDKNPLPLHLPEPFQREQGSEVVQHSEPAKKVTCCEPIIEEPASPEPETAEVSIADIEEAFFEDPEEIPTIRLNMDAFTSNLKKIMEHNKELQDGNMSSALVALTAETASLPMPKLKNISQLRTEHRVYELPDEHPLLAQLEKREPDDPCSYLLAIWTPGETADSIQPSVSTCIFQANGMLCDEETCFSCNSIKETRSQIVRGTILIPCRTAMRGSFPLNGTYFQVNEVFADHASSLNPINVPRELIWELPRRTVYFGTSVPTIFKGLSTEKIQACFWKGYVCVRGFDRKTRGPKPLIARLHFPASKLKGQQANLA

MBP-ROS1 (Arabidopsis) = target: T3, MBP-ROS1 (Arabidopsis) (UniProt Q9SJQ6); assay: as above
T3 sequence: T2 sequence

ROS1-Nluc (Arabidopsis) = target: T4, ROS1-Nluc (Arabidopsis) (UniProt Q9SJQ6); assay: split reporter; firefly luciferase complementation imaging in Nicotiana benthamiana leaves; APE1L-Cluc and ROS1-Nluc co-transformed with p19; imaged after 3 d with 1 mM luciferin
T4 sequence: T2 sequence

B1: His-tagged ROS1 (His-ROS1) (enzyme, UniProt Q9SJQ6 1-1393)
chain: T2 sequence
binding [1]: binds

B2: MBP-APE1L fusion protein (Arabidopsis APE1L, full length) (enzyme, UniProt Q5XF07 1-364)
chain: T1 sequence
binding [2]: binds | binding (MBP-ROS1 (Arabidopsis)): binds

B3: APE1L-Cluc (enzyme, UniProt Q5XF07 1-364)
chain: T1 sequence
binding (ROS1-Nluc (Arabidopsis)): binds
